TcHisRS: 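Histidine-tRNA ligase, Trypanosoma cruzi CL Brener (UniProt Q4DA54). Enzyme assay of histidyl-tRNA synthetase; the read-out is not stated. Concentration: 30 µM. The record gives no direction; compounds that gave an IC50 in retests scored well above the rest, so higher reads as stronger inhibition. Size under these conditions: about 69,000 compounds, about 31 of them at 50% or above in at least one test.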
CoaBC: 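Enzyme assay of CoaBC with a phosphate dye (Biomol Green) read at 650 nm. Target: Coenzyme A biosynthesis protein CoaBC, Mycobacterium tuberculosis (UniProt P9WNZ1). Concentration: 30 µM. Direction is inferred from only a few compounds that gave an IC50; most scored high, so higher reads as stronger inhibition. Most strong results did not repeat in a second test. Size under these conditions: about 67,000 compounds, about 40 of them at 50% or above in at least one test.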
LiHisRS: 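Histidine-tRNA ligase, Leishmania infantum (UniProt A4I591). Enzyme assay of histidyl-tRNA synthetase; the read-out is not stated. Concentration: 30 µM. Higher reads as stronger inhibition (inferred: compounds with an IC50 in retests scored well above the rest). The assay is labelled LdHisRS but filed under L. infantum. About 69,000 compounds were tested under these conditions; 0.6% (about 410) showed 50% or more at least once.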

The chains behind the UniProt entries cited, without tags or fusion partners. Residues count along the entry.
UniProt Q4DA54, 1-478: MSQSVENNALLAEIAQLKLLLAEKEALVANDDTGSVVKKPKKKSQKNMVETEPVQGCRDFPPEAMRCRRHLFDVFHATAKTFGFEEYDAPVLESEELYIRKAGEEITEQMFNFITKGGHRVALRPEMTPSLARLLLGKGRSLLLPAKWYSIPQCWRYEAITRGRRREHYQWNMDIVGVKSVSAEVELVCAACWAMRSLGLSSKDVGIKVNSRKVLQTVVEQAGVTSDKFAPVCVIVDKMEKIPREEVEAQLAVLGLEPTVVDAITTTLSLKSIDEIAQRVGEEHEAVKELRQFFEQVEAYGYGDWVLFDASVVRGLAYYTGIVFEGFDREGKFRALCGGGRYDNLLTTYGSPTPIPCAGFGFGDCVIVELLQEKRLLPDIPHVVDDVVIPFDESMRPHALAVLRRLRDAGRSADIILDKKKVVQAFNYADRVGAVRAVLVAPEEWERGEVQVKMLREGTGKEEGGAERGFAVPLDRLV
UniProt P9WNZ1, whole entry: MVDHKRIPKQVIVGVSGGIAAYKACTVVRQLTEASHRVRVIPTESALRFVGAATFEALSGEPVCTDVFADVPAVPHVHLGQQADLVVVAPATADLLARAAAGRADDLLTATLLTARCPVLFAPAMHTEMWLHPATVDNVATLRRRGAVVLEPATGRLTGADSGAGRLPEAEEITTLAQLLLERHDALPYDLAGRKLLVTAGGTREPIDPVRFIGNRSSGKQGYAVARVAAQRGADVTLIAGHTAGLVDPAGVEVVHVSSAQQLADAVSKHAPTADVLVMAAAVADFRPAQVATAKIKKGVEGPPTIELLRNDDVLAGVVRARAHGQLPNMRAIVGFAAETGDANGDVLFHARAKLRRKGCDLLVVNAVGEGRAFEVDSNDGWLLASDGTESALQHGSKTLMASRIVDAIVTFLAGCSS
UniProt A4I591, 1-473: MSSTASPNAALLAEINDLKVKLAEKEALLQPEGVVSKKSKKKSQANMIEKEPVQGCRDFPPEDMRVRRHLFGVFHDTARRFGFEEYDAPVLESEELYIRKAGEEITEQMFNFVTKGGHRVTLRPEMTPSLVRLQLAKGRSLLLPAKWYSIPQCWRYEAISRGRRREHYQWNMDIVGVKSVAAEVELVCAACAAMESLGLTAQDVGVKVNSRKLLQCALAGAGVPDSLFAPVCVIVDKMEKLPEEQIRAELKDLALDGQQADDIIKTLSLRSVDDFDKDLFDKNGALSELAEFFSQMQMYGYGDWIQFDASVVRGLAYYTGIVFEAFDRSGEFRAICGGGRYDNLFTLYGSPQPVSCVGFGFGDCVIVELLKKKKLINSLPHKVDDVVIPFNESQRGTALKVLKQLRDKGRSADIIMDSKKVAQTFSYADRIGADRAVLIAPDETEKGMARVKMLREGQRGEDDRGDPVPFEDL

The filed quantity is “Percent Effect” (%).
The record does not define 0% and 100%; most values in the screen are far below 50% and negative numbers occur (in some assays of this library far below -100).
Compounds were drawn at random from those tested, without regard to their results.
A dash means the value is not listed here; it may have been measured.

| # | Compound | TcHisRS | CoaBC | LiHisRS |
|---|---|---|---|---|
| 1 | `Cc1ncsc1CN(Cc1ccccc1)Cc1ccncc1` | 7.273% | 0% | 36.36% |
| 2 | `CCC(=O)N1CCCCC[C@@H]2[C@@H]1[C@H](c1cccc(F)c1)CN2C` | 3.03% | -3.942% | 2.899% |
| 3 | `CNC(=O)c1ccc(NC2CCN(CC(F)(F)F)C2=O)cc1Cl` (configuration not stated) | 13.25% | -0.9901% | 16% |
| 4 | `Nc1ncc(C(=O)N2CCC(O)(CO)CC2)c(-c2ccccc2)n1` | 1.093% | 13.73% | 0% |
| 5 | `Cc1ccc(CC(=O)N2CCCC(c3nc(C)cs3)C2)cn1` (configuration not stated) | -3.448% | 3.373% | -3.077% |
| 6 | `CCN1C(=O)CC(c2cnn(C)c2)C12CCN(C(=O)c1ccoc1)CC2` (configuration not stated) | 2.299% | 1.844% | 26% |
| 7 | `O=C(Nc1nncs1)N(Cc1cccc(F)c1)C1CC1` | 7.792% | - | 17.14% |
| 8 | `COc1cc(C(=O)N(Cc2cccs2)C2CC2)cc2c1OCCO2` | -8.333% | 5.372% | 8.036% |
| 9 | `CN(C)C(=O)CCC1CCCN(Cc2cccc(-c3ccccn3)c2)C1` (configuration not stated) | 4.891% | -0.4132% | -18.67% |
| 10 | `Nc1nccnc1C1CN(C(=O)c2ccc3c(c2)OCO3)CCO1` (configuration not stated) | 3.731% | 1.703% | -3.158% |
| 11 | `c1cnnc(N2CCCC2CNCc2nc(-c3ccsc3)no2)c1` (configuration not stated) | 0.7634% | 9.845% | -2.128% |
| 12 | `O=C(C1CC1)N1CC[C@H](c2nc3ccccc3o2)C1` | 3.96% | 6.546% | 8.333% |
| 13 | `Cc1ccc(NC2CCN(C(=O)CCc3ccccc3)CC2)nn1` | 5.814% | 16.01% | 17.86% |
| 14 | `CN(C)C[C@@H]1CN(C(=O)Cc2ccc3ccccc3c2)C[C@@H]1CO` | 4.04% | 1.535% | 18.03% |
| 15 | `O=C1CO[C@H]2CN(Cc3ccc(C(F)(F)F)cc3)C[C@H]2N1` | 4.348% | 3.753% | 20.27% |
| 16 | `CCC(C)NC(=O)c1sccc1-n1cnnn1` (configuration not stated) | 2.609% | 6.184% | 1.667% |
| 17 | `CCc1nccn1-c1cncc(C2CCCN2Cc2cccnc2)n1` (configuration not stated) | 4.301% | -4.058% | 20% |
| 18 | `COc1ccc(OC)c([C@@H]2N[C@H](c3nccs3)Cc3ccsc32)c1` | 6.818% | -8.878% | 5.634% |
| 19 | `O=C(c1ccoc1)N1CCC(NCc2ccccc2Cl)CC1` | 3.448% | 8.448% | 14.91% |
| 20 | `Cc1nccn1-c1cc(CNC(=O)CC2CCCO2)ccn1` (configuration not stated) | 5.202% | 0.6519% | 16.67% |
| 21 | `Cc1ccc(C(=O)Nc2ccc(N(C)C)nc2)n1C` | 6.14% | 3.815% | 17.86% |
| 22 | `Cc1cc(F)ccc1CNCCn1cccn1` | 1.626% | -6.751% | 14.42% |
| 23 | `COc1ccc2c(c1)CCCN(CC(=O)NCC1CCCO1)C2` (configuration not stated) | 10.05% | 1.618% | 20% |
| 24 | `CCc1nccn1-c1cccc(C2CCCN2S(=O)(=O)N(C)C)n1` (configuration not stated) | 12.09% | 0.4854% | 18.84% |
| 25 | `Cc1ccc(N2CCN(C(=O)CCc3n[nH]c(C)c3C)CC2=O)cc1` | 0.4292% | 2.99% | 11.48% |
| 26 | `C[C@H](NC(=O)N1CCC(Cc2ccccc2)CC1)C(=O)O` | -3.727% | 2.405% | -5% |
| 27 | `COCCNC(=O)NCCc1cccc(OC)c1O` | 4.902% | -6.016% | 7.563% |
| 28 | `NC(=O)c1cccc(CS(=O)(=O)CC(O)Cn2cccn2)c1` (configuration not stated) | 5.319% | 0.2049% | 15.71% |
| 29 | `CC1=C(c2ccc(Cl)cc2)S(=O)(=O)N=C1N1CCc2ccccc21` | -19.6% | 3.971% | -4.494% |
| 30 | `COc1ccccc1C(C)(C)NC(=O)NCCC(=O)NC1CCCC1` | 10.1% | 5.471% | 19.51% |
| 31 | `CC(CO)CSc1ncnc2[nH]ncc12` (configuration not stated) | 3.191% | 2.811% | 16.42% |
| 32 | `Cc1ccc(-c2nnc(CN3CCc4nn(C)c(=O)cc4C3)o2)cc1` | 4.36% | -3.609% | 106.1% |
| 33 | `Cc1cccc(C)c1OCC(O)CNCc1c(C)nn(C)c1N(C)C` (configuration not stated) | 4.036% | 5.076% | 17.65% |
| 34 | `O=C(C1CCCO1)N1CCCn2c(nnc2Cn2cccc2)C1` (configuration not stated) | 3.797% | - | 12.07% |
| 35 | `O=C(c1ccc(Cl)cc1)N1CCC(N2CCCCC2=O)CC1` | 4.142% | 2.895% | 5.517% |
| 36 | `O=S1(=O)c2ccccc2OCC2(CCN(CCO)CC2)CN1CC1CC1` | 2.439% | 0.7519% | 25.64% |
| 37 | `COCCN1CCN(S(C)(=O)=O)Cc2cccnc21` | 4.444% | 2.195% | 13.21% |
| 38 | `CCc1ccc(NC(=O)N2Cc3c(CN(C)C)nn(C)c3C2)cc1` | 8.021% | -36.25% | 17.95% |
| 39 | `Cc1cnc(C(=O)N2C[C@H]3CN(Cc4cccc(F)c4)C(=O)[C@H]3C2)cn1` | 5.882% | 5.071% | 15.6% |
| 40 | `CCN1CCN(Cc2coc(-c3cccc(F)c3)n2)CC1` | 0.7634% | -3.373% | 21.92% |
| 41 | `CSC(C)CCN(Cc1ccccn1)Cc1sccc1C` (configuration not stated) | 1.339% | -0.5102% | 8.642% |
| 42 | `CC(Cn1ccnc1)NC(=O)N(C)Cc1ccco1` (configuration not stated) | 3.59% | 0.2484% | -4.762% |
| 43 | `COCCNc1nc(NCCc2ccccc2)nc2nccnc12` | 1.031% | -2.594% | -3.297% |
| 44 | `CC(C#N)CNC(=O)Nc1ccc(-c2ccc[nH]2)cc1` (configuration not stated) | 5.732% | - | 9.859% |
| 45 | `COc1ccccc1-n1nc(CC(C)C)nc1Cc1nnc(N)s1` | -0.4975% | 8.889% | 6.993% |
| 46 | `Cc1cc(N2CCCC2c2nnc3n2CCCCC3)nc(N)n1` (configuration not stated) | 7% | 1.937% | 19.57% |
| 47 | `Cc1noc(C)c1CC(=O)N1CCCC(n2ccnc2C)C1` (configuration not stated) | 5.473% | 4.642% | 13.25% |
| 48 | `CCN1CC[C@@]2(C(=O)N3CCOCC3)CCN(C(=O)NC)CC[C@@H]12` | 7.767% | 7.379% | 13.59% |
| 49 | `CC(NC(=O)Nc1nccs1)C(=O)NC1CCCC1` (configuration not stated) | 6.173% | -6.388% | 15.05% |
| 50 | `CNC(=O)c1ccc(C(=O)N2CCCC(n3nc(C)cc3C)C2)cn1` (configuration not stated) | 2.299% | 1.419% | 5.217% |
| 51 | `Cc1cc(CN2CCN(C(=O)Nc3cccnc3)CC2)on1` | 0.3802% | 1.064% | 16.8% |
| 52 | `Nc1nccnc1C(=O)NC1CCCN(Cc2c(F)cccc2F)C1` (configuration not stated) | 7.182% | 2.42% | 2.073% |
| 53 | `CCCS(=O)(=O)N1C[C@@H]2CN(Cc3cnn(C)c3)CCO[C@@H]2C1` | 9.677% | 4% | 13.27% |
| 54 | `O=C(CCn1cccn1)NCCOc1ncc(Cl)cc1Cl` | 4.02% | 2.913% | 10.59% |
| 55 | `Cc1nnc(NC(=O)CN(C)C2CCCN(c3cccnn3)C2)s1` (configuration not stated) | 13.29% | -0.3831% | 18.75% |
| 56 | `Cc1cnc(N2CCCC3(CCN(Cc4csc(C)n4)C3=O)C2)nc1` (configuration not stated) | 5.946% | 1.396% | 30.19% |
| 57 | `c1cncc(CNc2ccc3nc(C4CCNCC4)nn3c2)c1` | 12.37% | 3.941% | 22% |
| 58 | `Cc1cccc(CNc2cncc(-n3cccn3)n2)c1` | 3.804% | 7.025% | 21.33% |
| 59 | `CC(C)(C)NC(=O)COc1ccc(Oc2ccccn2)cc1` | -2.062% | 10.02% | 9.677% |
| 60 | `CCc1nnc2n1CCN(C(=O)CCc1ccc(C)c(Cl)c1)C2` | 11.88% | 5.448% | 27.17% |
| 61 | `CN1CC[C@@H]2OC[C@H](C(=O)N(C)Cc3ccccn3)C[C@@H]2C1` | 5.525% | 1.733% | 15.32% |
| 62 | `CC(=O)N1CCn2c(C(=O)N(C)C)cnc2C1` | -0.5464% | -4.404% | 5.109% |
| 63 | `CCN1CCC2(CN(C(C)=O)CC23CCN(C(=O)N(C)C)CC3)C1=O` (configuration not stated) | 5.825% | 4.835% | 15.53% |
| 64 | `CN1C[C@@H]2COC[C@]2(C(=O)NCCc2cccs2)C1` | 1.149% | 0.611% | 5.263% |
| 65 | `Cc1ccoc1C(=O)NC1CCN(CC(=O)N(C)c2ccccc2)CC1` | 4.624% | 3.52% | 18.42% |
| 66 | `CCC(O)CN1CCN(C(=O)Cc2cc(C)ccc2OC)CC1` (configuration not stated) | 3.704% | -11.53% | 13.68% |
| 67 | `Cn1ccnc1CN1CCC2(CC1)CCN(c1ccccc1)C2=O` | 1.111% | -0.9756% | 16.98% |
| 68 | `CCN(CC)S(=O)(=O)c1ccc(OC)c(NC(=O)CSC)c1` | 6.404% | -1.582% | 11.69% |
| 69 | `CCOC1CCN(C(=O)c2cnn(-c3ccccc3Cl)c2)CC1` | 2.256% | 2.017% | 38.1% |
| 70 | `Cc1cnn(CCC(=O)N2CCCC(c3ccn[nH]3)C2)c1` (configuration not stated) | 3.198% | 3.842% | -0.8772% |
| 71 | `CCCn1nc(C(=O)NC2(c3ccc(Cl)cc3)CCCC2)ccc1=O` | 8.808% | -11.72% | 21.35% |
| 72 | `Cc1nnc(-c2cccc(N3CCC(NC4CCSC4)CC3)c2)s1` (configuration not stated) | -1.205% | -1.238% | 18% |
| 73 | `O=C(C1CC1)N1CCN(Cc2coc(-c3ccc(Cl)cc3)n2)CC1` | 0.7634% | 0.4819% | 21.92% |
| 74 | `Cn1ncc2c(NC3CCC3)nc(-c3ccncc3)nc21` | 7.143% | 5.66% | 7.08% |
| 75 | `CCn1nc(C(=O)N2CCCC2c2noc(C)n2)ccc1=O` (configuration not stated) | -0.9804% | 3.509% | 6.667% |

Some entries from above, unchanged:

| Compound | TcHisRS | CoaBC | LiHisRS |
|---|---|---|---|
| `Cc1cccc(CNc2cncc(-n3cccn3)n2)c1` | 3.804% | 7.025% | 21.33% |
| `COCCNC(=O)NCCc1cccc(OC)c1O` | 4.902% | -6.016% | 7.563% |
| `Cc1ccc(NC2CCN(C(=O)CCc3ccccc3)CC2)nn1` | 5.814% | 16.01% | 17.86% |
| `O=C(c1ccc(Cl)cc1)N1CCC(N2CCCCC2=O)CC1` | 4.142% | 2.895% | 5.517% |
| `CNC(=O)c1ccc(NC2CCN(CC(F)(F)F)C2=O)cc1Cl` (configuration not stated) | 13.25% | -0.9901% | 16% |
| `c1cnnc(N2CCCC2CNCc2nc(-c3ccsc3)no2)c1` (configuration not stated) | 0.7634% | 9.845% | -2.128% |
| `CC(NC(=O)Nc1nccs1)C(=O)NC1CCCC1` (configuration not stated) | 6.173% | -6.388% | 15.05% |
| `Nc1nccnc1C(=O)NC1CCCN(Cc2c(F)cccc2F)C1` (configuration not stated) | 7.182% | 2.42% | 2.073% |

Measurements from “University of Dundee, Small-Polar-MMV Screening Library” (2021), ChEMBL document CHEMBL3988442.